No constants are given. Whether binding was seen depends on the method and setting. In cells and extracts the contact can be indirect. Binding can be weak; no strength is given. Sequences can lack the tags named with a protein.

This assay concerns the target T1, Flag-USP26 full length (UniProt Q9BXU7).
T1 sequence: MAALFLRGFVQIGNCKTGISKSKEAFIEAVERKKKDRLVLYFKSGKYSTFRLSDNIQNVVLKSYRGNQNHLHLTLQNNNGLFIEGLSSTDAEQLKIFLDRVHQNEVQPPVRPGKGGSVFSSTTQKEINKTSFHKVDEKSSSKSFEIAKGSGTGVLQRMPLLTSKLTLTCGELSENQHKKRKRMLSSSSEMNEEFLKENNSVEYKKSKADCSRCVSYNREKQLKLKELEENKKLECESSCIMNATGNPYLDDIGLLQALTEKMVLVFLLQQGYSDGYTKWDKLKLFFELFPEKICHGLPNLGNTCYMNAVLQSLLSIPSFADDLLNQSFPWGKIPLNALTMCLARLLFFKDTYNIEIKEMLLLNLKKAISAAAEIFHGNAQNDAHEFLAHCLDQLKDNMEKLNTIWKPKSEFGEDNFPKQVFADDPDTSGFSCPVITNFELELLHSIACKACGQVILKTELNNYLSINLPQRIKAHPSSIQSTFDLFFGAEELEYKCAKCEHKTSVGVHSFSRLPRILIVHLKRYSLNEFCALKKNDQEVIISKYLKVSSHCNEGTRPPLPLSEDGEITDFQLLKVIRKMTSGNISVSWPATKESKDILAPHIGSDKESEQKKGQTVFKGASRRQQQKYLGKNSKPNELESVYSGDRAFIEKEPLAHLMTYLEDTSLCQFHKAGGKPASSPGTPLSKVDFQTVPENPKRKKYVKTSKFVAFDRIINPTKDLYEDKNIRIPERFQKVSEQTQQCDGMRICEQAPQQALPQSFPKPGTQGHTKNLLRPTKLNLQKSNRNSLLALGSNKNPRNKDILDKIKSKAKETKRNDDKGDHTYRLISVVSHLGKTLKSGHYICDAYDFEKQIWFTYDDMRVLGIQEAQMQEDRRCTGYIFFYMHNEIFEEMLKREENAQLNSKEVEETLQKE
Description: co-IP; HEK293 cells transfected with Flag-USP26 and Myc-TAZ full length or mutants; NP-40 lysis buffer; IP with Flag antibody, blot with Myc antibody.

Consider “Myc-TAZ C-terminal region (deletion mutant) (domain or fragment)”, for which the binding entry was “binds”.

Values taken from article PMC8994751.
